Values from PubChem BioAssay AID1259254 (NCATS, 2017)

- Aim: 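Gene knock-downs that lead to re-replication, shown by excess G2 DNA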 (primary screen)
- Cell system: human HCT116 colorectal cancer cells
- Knock-down reagent: single siRNA against human genes
- Duration: 3 days
- Measured: 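Imaged Hoechst DNA stain sorts each cell into a cycle phase by DNA amount; per plate, G2 fraction set to 0% for non-targeting and 100% for GMNN siRNA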
- Direction: G2 robust z-score: higher = more G2 cells, more excess DNA replication
- Call rule: 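Active siRNAs have a G2 robust z of 5 or more median absolute deviations over the median, which in these data means about 38% or higher of GMNN control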
The deposit covers about 59,000 reagents; shown is a part drawn at random. About 1,550 of all reagents (2.6%) were called active. 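G2 share is only a proxy for re-replication; each gene was hit by three separate siRNAs, and active genes were retested.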 A number with no mark means an inactive call. Reagents against one gene are numbered here. Further read-outs or replicates are left out here. Not given: the amount of reagent.

no.	target	reagent	G2 robust z-score
1	SCARA3 (scavenger receptor class A member 3)	1	-0.828
2	SCARA3 (scavenger receptor class A member 3)	2	-0.0822
3	SCARA3 (scavenger receptor class A member 3)	3	-1.08
4	HSBP1L1 (heat shock factor binding protein 1 like 1)	1	-0.447
5	HSBP1L1 (heat shock factor binding protein 1 like 1)	2	-1.04
6	HSBP1L1 (heat shock factor binding protein 1 like 1)	3	1.04
7	AR (androgen receptor)	1	-0.511
8	AR (androgen receptor)	2	2.64
9	AR (androgen receptor)	3	0.529
10	PRMT3 (protein arginine methyltransferase 3)	1	0.215
11	PRMT3 (protein arginine methyltransferase 3)	2	-0.886
12	PRMT3 (protein arginine methyltransferase 3)	3	-0.939
13	AQR (aquarius intron-binding spliceosomal factor)	1	0.499
14	AQR (aquarius intron-binding spliceosomal factor)	2	0.898
15	AQR (aquarius intron-binding spliceosomal factor)	3	-0.784
16	LOXL4 (lysyl oxidase like 4)	1	-1.17
17	LOXL4 (lysyl oxidase like 4)	2	-1.27
18	LOXL4 (lysyl oxidase like 4)	3	-0.96
19	CTNNA3 (catenin alpha 3)	1	-0.273
20	CTNNA3 (catenin alpha 3)	2	-0.767
21	CTNNA3 (catenin alpha 3)	3	-0.704
22	MPZL3 (myelin protein zero like 3)	1	1.41
23	MPZL3 (myelin protein zero like 3)	2	7.54 (active)
24	MPZL3 (myelin protein zero like 3)	3	-0.101
25	CALB1 (calbindin 1)	1	-0.412
26	CALB1 (calbindin 1)	2	-0.225
27	CALB1 (calbindin 1)	3	-0.395
28	ZNF81 (zinc finger protein 81)	1	0.786
29	ZNF81 (zinc finger protein 81)	2	-0.781
30	ZNF81 (zinc finger protein 81)	3	0.141
31	RETREG1 (reticulophagy regulator 1)	1	1.93
32	RETREG1 (reticulophagy regulator 1)	2	-0.423
33	RETREG1 (reticulophagy regulator 1)	3	-1.12

Part of the list above, set out differently.
AQR (aquarius intron-binding spliceosomal factor) #3
- G2 robust z-score: -0.784

LOXL4 (lysyl oxidase like 4) #1
- G2 robust z-score: -1.17

LOXL4 (lysyl oxidase like 4) #2
- G2 robust z-score: -1.27

LOXL4 (lysyl oxidase like 4) #3
- G2 robust z-score: -0.96

CTNNA3 (catenin alpha 3) #1
- G2 robust z-score: -0.273

CTNNA3 (catenin alpha 3) #2
- G2 robust z-score: -0.767

CTNNA3 (catenin alpha 3) #3
- G2 robust z-score: -0.704

MPZL3 (myelin protein zero like 3) #1
- G2 robust z-score: 1.41

Further records:
no.	target	reagent	G2 robust z-score
34	ZBED4 (zinc finger BED-type containing 4)	1	-0.269
35	ZBED4 (zinc finger BED-type containing 4)	2	2.87
36	ZBED4 (zinc finger BED-type containing 4)	3	0.765
37	CST11 (cystatin 11)	1	-0.345
38	CST11 (cystatin 11)	2	0.331
39	CST11 (cystatin 11)	3	1.41
40	NPVF (neuropeptide VF precursor)	1	2.43
41	NPVF (neuropeptide VF precursor)	2	-0.511
42	NPVF (neuropeptide VF precursor)	3	-0.268
43	ECHDC2 (enoyl-CoA hydratase domain containing 2)	1	0.933
44	ECHDC2 (enoyl-CoA hydratase domain containing 2)	2	-0.637
45	ECHDC2 (enoyl-CoA hydratase domain containing 2)	3	-0.105
46	TMCO6 (transmembrane and coiled-coil domains 6)	1	0.406
47	TMCO6 (transmembrane and coiled-coil domains 6)	2	0.381
48	TMCO6 (transmembrane and coiled-coil domains 6)	3	5.35 (active)
49	TRIM49 (tripartite motif containing 49)	1	-0.296
50	TRIM49 (tripartite motif containing 49)	2	2.62
51	TRIM49 (tripartite motif containing 49)	3	4.02
52	BTRC	1	-0.675
53	BTRC	2	-0.0693
54	BTRC	3	1.26
55	FURIN (furin, paired basic amino acid cleaving enzyme)	1	4.07
56	FURIN (furin, paired basic amino acid cleaving enzyme)	2	3.91
57	FURIN (furin, paired basic amino acid cleaving enzyme)	3	1.01
58	ZNF800 (zinc finger protein 800)	1	-0.608
59	ZNF800 (zinc finger protein 800)	2	0.554
60	ZNF800 (zinc finger protein 800)	3	-0.413
61	ZNF407 (zinc finger protein 407)	1	-0.0938
62	ZNF407 (zinc finger protein 407)	2	-0.0422
63	ZNF407 (zinc finger protein 407)	3	2.98
64	HILPDA (hypoxia inducible lipid droplet associated)	1	-0.553
65	HILPDA (hypoxia inducible lipid droplet associated)	2	-0.0489
66	HILPDA (hypoxia inducible lipid droplet associated)	3	5.32 (active)
67	EVX1 (even-skipped homeobox 1)	1	0.537
68	EVX1 (even-skipped homeobox 1)	2	-0.0316
69	EVX1 (even-skipped homeobox 1)	3	-0.496
